This is an account of results in patent publication US20020164716A1.

These are yes or no findings as the source states them, for the method shown. For some assays here: Binding calls can cover weak binding; strength is not graded here.

Assay [1] deals with region of the IL-1 receptor known to be critical for signalling (IL-1R477-527). In words: yeast interaction trap, panel of baits.
The target in assay [2] is cytoplasmic domain of the IL-1 receptor. The experiment in a line: yeast interaction trap, panel of baits.

B1: TNF-R1-DD ligand protein encoded by clone 1TU (ligand, not shown: large carriers)
chain: SLKANIPEVEAVLNTDRSLVCDGKRGLLTRLLQVMKKEPAESSFRFWQARAVESFLRGTTSYADQMFLLKRGLLEHILYCIVDSECKSRDVLQSYFDLLGELMKFNVDAFKRFNKYINTDAKFQVFLKQINSSLVDSNMLVRCVTLSLDRFENQVDMKVAEVLSECRLLAYISQVPTQMSFLFRLINIIHVQTLTQENVSCLNTSLVILMLARRKERLPLYLRLLQRMEHSKKYPGFLLNNFHNLLRFWQQHYLHKDKDSTCLENSSCISFSYWKETVSILLNPDRQSPSALVSYIEEPYMDIDRDFTEE
For B1, the binding entry in assay [1] is listed as “binds”.

B2: TNF-R1-DD ligand protein encoded by clone 3DD (ligand, not shown: large carriers)
chain: EVQDLFEAQGNDRLKLLVLYSGEDDELLQRAAAGGLAMLTSMRPTLCSRIPQVTTHWLEILQALLLSSNQELQHRGAVVVLNMVEASREIASTLMESEMMEILSVLAKGDHSPVTRAAAACLDKAVEYGLIQPNQDGE
For B2, the binding result in assay [2] is “no binding”.
